Measurements reported in PubChem BioAssay AID686938 (Drosophila RNAi Screening Center, 2013).
Aim: 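Looking for CRAC channel components and the factors controlling them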 (primary screen). System: Drosophila S2R+ cells. Reagent: long dsRNA against Drosophila genes, about 0.25 µg dsRNA per well, roughly 10,000 cells. Timing: 5 days of knock-down before the calcium assay. Treatment: thapsigargin (SERCA pump blocker) to empty calcium stores; entry signal taken 4 min after adding it. Measurement: 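Per-well fluo-4 fluorescence in two replicates, unnormalised, measured in resting cells and 4 min after store depletion by the SERCA blocker thapsigargin; ratio of the two present in few wells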. Reading the numbers: calcium entry signal: higher = stronger calcium signal after store depletion; entry to resting ratio: higher = more calcium entry relative to resting level; resting calcium signal: higher = higher resting calcium signal. Active means: 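Hit if the duplicate-averaged plate z-score for entry over resting signal is under −3; wells with weak total dye signal (Fmax z < −2) or more than 5 off-targets removed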. Meaning of the calls: active = strongly reduced calcium entry; inactive = no strong reduction.
The screen tested about 23,000 reagents; below is a random part of those with a known target gene and a result. Of all reagents, 75 (0.33%) were called active. 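Raw plate signals without normalisation; calls rest on plate z-scores that were not deposited; ratio present for only 364 wells.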 A number with no mark means an inactive call. Not stated in the record: the dose of the treatment.

| gene | DRSC id | calcium entry signal, replicate 1 (fluorescence units) | calcium entry signal, replicate 2 (fluorescence units) | entry to resting ratio | resting calcium signal, replicate 1 (fluorescence units) | resting calcium signal, replicate 2 (fluorescence units) |
| --- | --- | --- | --- | --- | --- | --- |
| Lst (Limostatin) | DRSC07146 | 5.31e7 | 6.28e7 | – | 2.19e7 | 2.99e7 |
| CG13326 | DRSC06363 | 3.85e7 | 4.31e7 | – | 1.85e7 | 1.97e7 |
| Prosbeta4R1 (Proteasome beta4 subunit-related 1) | DRSC00502 | 3.54e7 | 3.53e7 | – | 1.74e7 | 1.74e7 |
| Map205 (Microtubule-associated protein 205) | DRSC16732 | 3.09e7 | 3.22e7 | – | 1.49e7 | 1.65e7 |
| aus (argus) | DRSC13471 | 5.96e7 | 3.99e7 | – | 2.84e7 | 1.90e7 |
| aus (argus) | DRSC13473 | 5.06e7 | 3.71e7 | – | 2.67e7 | 1.89e7 |
| aus (argus) | DRSC15157 | 5.17e7 | 4.17e7 | – | 2.10e7 | 1.53e7 |
| CG33282 | DRSC00422 | 2.91e7 | 2.75e7 | – | 1.46e7 | 1.34e7 |
| Drat (Death resistor Adh domain containing target) | DRSC06600 | 3.11e7 | 2.06e7 | – | 1.25e7 | 1.06e7 |
| btd (buttonhead) | DRSC18747 | 4.04e7 | 4.72e7 | – | 2.01e7 | 2.23e7 |
| Nmnat (Nicotinamide mononucleotide adenylyltransferase) | DRSC14644 | 4.25e7 | 3.62e7 | – | 2.02e7 | 1.70e7 |
| botv | DRSC05949 | 2.88e7 | 2.12e7 | – | 1.22e7 | 1.07e7 |
| CG31183 | DRSC14403 | 3.65e7 | 4.66e7 | – | 1.67e7 | 6.00e7 |
| CG31183 | DRSC15554 | 2.22e7 | 2.36e7 | – | 1.15e7 | 1.12e7 |
| mgr (merry-go-round) | DRSC16099 | 3.05e7 | 2.76e7 | – | 1.57e7 | 1.42e7 |
| CG32628 (retired record) | DRSC19405 | 4.70e7 | 3.19e7 | – | 2.27e7 | 1.71e7 |
| CG12994 | DRSC19192 | 2.86e7 | 3.81e7 | – | 1.39e7 | 1.72e7 |
| CG12994 | DRSC19514 | 3.54e7 | 2.71e7 | – | 1.84e7 | 1.33e7 |
| Trc8 (TRC8 ring finger protein) | DRSC15437 | 3.66e7 | 3.92e7 | – | 1.75e7 | 1.90e7 |
| Hira | DRSC18672 | 3.12e7 | 3.95e7 | – | 1.39e7 | 1.74e7 |
| CG5800 | DRSC19962 | 1.68e7 | 1.79e7 | – | 1.02e7 | 1.02e7 |
| ddbt (deadbeat) | DRSC07869 | 2.68e7 | 3.79e7 | – | 1.50e7 | 1.81e7 |
| nec (necrotic) | DRSC06769 | 3.13e7 | 3.95e7 | – | 1.45e7 | 1.76e7 |
| cpb (capping protein beta) | DRSC00809 | 4.17e7 | – | – | 2.26e7 | – |
| CG10139 | DRSC05972 | 3.82e7 | 4.40e7 | – | 1.71e7 | 1.86e7 |
| kat-60L1 (katanin p60-like 1) | DRSC12184 | 3.92e7 | 4.14e7 | – | 1.66e7 | 1.89e7 |
| Tif-IA | DRSC03717 | 2.86e7 | – | – | 1.60e7 | – |
| Tif-IA | DRSC03726 | 3.96e7 | 3.06e7 | – | 2.23e7 | 1.54e7 |
| CG43183 | DRSC05113 | 2.25e7 | 4.61e7 | – | 1.29e7 | 4.52e7 |
| CG14339 | DRSC00369 | 6.27e7 | 5.40e7 | – | 2.45e7 | 2.13e7 |
| Mybbp1A (MYB binding protein 1a) | DRSC18788 | 2.99e7 | 3.66e7 | – | 1.45e7 | 1.84e7 |
| CG2150 | DRSC15420 | 6.61e7 | 5.70e7 | 2.6 | 2.53e7 | 2.26e7 |
| Slik (Sterile20-like kinase) | DRSC04471 | 3.96e7 | – | – | 2.17e7 | – |
| Hpd (4-hydroxyphenylpyruvate dioxygenase) | DRSC11670 | 3.61e7 | 3.76e7 | – | 1.54e7 | 2.65e7 |
| CG31924 | DRSC00689 | 4.62e7 | 5.12e7 | – | 2.04e7 | 2.36e7 |
| CG6707 | DRSC10697 | 3.48e7 | 5.15e7 | – | 1.90e7 | 2.29e7 |
| Dhc36C (Dynein heavy chain at 36C) | DRSC03315 | 5.60e7 | 3.41e7 | – | 2.27e7 | 1.78e7 |
| ChAT (Choline acetyltransferase) | DRSC13314 | 4.92e7 | 2.29e7 | – | 1.95e7 | 1.11e7 |
| ChAT (Choline acetyltransferase) | DRSC16609 | 3.26e7 | 3.57e7 | – | 5.79e7 | 1.56e7 |
| ChAT (Choline acetyltransferase) | DRSC22755 | 3.81e7 | 3.55e7 | – | 2.20e7 | 1.73e7 |
| CG12729 | DRSC17884 | 3.40e7 | 3.64e7 | – | 1.65e7 | 1.75e7 |
| CG14352 | DRSC00382 | 3.52e7 | 4.74e7 | – | 1.62e7 | 1.77e7 |
| CG30384 | DRSC06032 | 3.69e7 | 3.79e7 | – | 1.58e7 | 1.54e7 |
| CG33170 | DRSC11854 | 2.57e7 | 3.68e7 | – | 1.13e7 | 1.59e7 |
| CG33170 | DRSC22366 | 3.88e7 | 4.78e7 | – | 1.84e7 | 2.76e7 |
| CG2889 | DRSC18236 | 3.38e7 | 4.20e7 | – | 1.75e7 | 2.14e7 |
| Vdup1 (Vitamin D[[3]] up-regulated protein 1) | DRSC08586 | 3.60e7 | 4.47e7 | – | 1.76e7 | 1.95e7 |
| CG17841 | DRSC17737 | 5.05e7 | 4.83e7 | – | 2.06e7 | 2.11e7 |
| CG42792 | DRSC01515 | 3.06e7 | 4.61e7 | – | 1.73e7 | 2.18e7 |
| CG34256 | DRSC09582 | 2.28e7 | 2.21e7 | – | 1.13e7 | 1.09e7 |
| CG13021 | DRSC17893 | 3.86e7 | 2.76e7 | 2.2 | 1.77e7 | 1.38e7 |
| Mtch | DRSC08679 | 4.08e7 | 3.40e7 | – | 1.90e7 | 1.75e7 |
| CG14567 | DRSC11728 | 3.62e7 | 5.58e7 | – | 1.62e7 | 2.25e7 |
| CG6700 | DRSC02980 | 4.66e7 | – | – | 2.18e7 | – |
| mr (morula) | DRSC04332 | 3.59e7 | – | – | 1.72e7 | – |
| mr (morula) | DRSC22856 | 2.27e7 | 3.73e7 | – | 1.11e7 | 1.74e7 |
| Hexo1 (Hexosaminidase 1) | DRSC08663 | 3.70e7 | 2.90e7 | – | 2.04e7 | 1.49e7 |
| CG32750 | DRSC18848 | 3.50e7 | 3.68e7 | – | 1.71e7 | 1.91e7 |

6 entries already listed, sorted by “resting calcium signal, replicate 1 (fluorescence units)”, high to low.
| gene | DRSC id | calcium entry signal, replicate 1 (fluorescence units) | calcium entry signal, replicate 2 (fluorescence units) | entry to resting ratio | resting calcium signal, replicate 1 (fluorescence units) | resting calcium signal, replicate 2 (fluorescence units) |
| --- | --- | --- | --- | --- | --- | --- |
| cpb (capping protein beta) | DRSC00809 | 4.17e7 | – | – | 2.26e7 | – |
| Tif-IA | DRSC03726 | 3.96e7 | 3.06e7 | – | 2.23e7 | 1.54e7 |
| CG10139 | DRSC05972 | 3.82e7 | 4.40e7 | – | 1.71e7 | 1.86e7 |
| kat-60L1 (katanin p60-like 1) | DRSC12184 | 3.92e7 | 4.14e7 | – | 1.66e7 | 1.89e7 |
| Tif-IA | DRSC03717 | 2.86e7 | – | – | 1.60e7 | – |
| nec (necrotic) | DRSC06769 | 3.13e7 | 3.95e7 | – | 1.45e7 | 1.76e7 |
